Results are given in words; binding and its absence hold for the method and conditions named. In cells and extracts the contact can be indirect. These calls come from enrichment with a bait or labelling near it, and not all partners need be listed. Tags and fused reporters may be left off the sequences shown.
B1: YCR087C-A (protein, UniProt P37263 1-153)
chain: MVTFNCEVCNDTVPKKNTEKHYYRCPNAYYTCIDCSKTFEDGVSYKNHTSCISEDEKYQKALYKGNKKQKQKQQQKQQQKQHQHQPVATPAKKVEKPVIKKAEKVEKTSNGIELHKGKSLYKILKTMKDKGAKKTFLKSLVVDSEGQIRYAKE
B2: DIG1 (protein, UniProt Q03063 1-452)
chain: MAVSARLRTTAEDTSIAKSTQDPIGDTEISVANAKGSSDSNIKNSPGGNSVGQESELEHVPEEDDSGDKEADHEDSETATAKKRKAQPLKNPKKSLKRGRVPAPLNLSDSNTNTHGGNIKDGNLASSNSAHFPPVANQNVKSAPAQVTQHSKFQPRVQYLGKASSRQSIQVNNSSNSYGKPHMPSAGIMSAMNPYMPMNRYIMSPYYNPYGIPPPHMLNKPIMTPYVSYPYPMGPRTSIPYAMQGGNARPYEENEYSASNYRNKRVNDSYDSPLSGTASTGKTRRSEEGSRNSSVGSSANAGPTQQRADLRPADMIPAEEYHFERDALLSANTKARSASTSTSTSTSTNRDRSSWHEAEPNKDEEEGTDLAIEDGAVPTPTFTTFQRTSQPQQQSPSLLQGEIRLSSHIFAFEFPLSSSNVDKKMFMSICNKVWNESKELTKKSSSHHRTGK
B3: VMA13 (protein, UniProt P41807 1-478)
chain: MGATKILMDSTHFNEIRSIIRSRSVAWDALARSEELSEIDASTAKALESILVKKNIGDGLSSSNNAHSGFKVNGKTLIPLIHLLSTSDNEDCKKSVQNLIAELLSSDKYGDDTVKFFQEDPKQLEQLFDVSLKGDFQTVLISGFNVVSLLVQNGLHNVKLVEKLLKNNNLINILQNIEQMDTCYVCIRLLQELAVIPEYRDVIWLHEKKFMPTLFKILQRATDSQLATRIVATNSNHLGIQLQYHSLLLIWLLTFNPVFANELVQKYLSDFLDLLKLVKITIKEKVSRLCISIILQCCSTRVKQHKKVIKQLLLLGNALPTVQSLSERKYSDEELRQDISNLKEILENEYQELTSFDEYVAELDSKLLCWSPPHVDNGFWSDNIDEFKKDNYKIFRQLIELLQAKVRNGDVNAKQEKIIIQVALNDITHVVELLPESIDVLDKTGGKADIMELLNHSDSRVKYEALKATQAIIGYTFK
B4: SIP2 (protein, UniProt P34164 1-415)
chain: MGTTTSHPAQKKQTTKKCRAPIMSDVREKPSNAQGCEPQEMDAVSKKVTELSLNKCSDSQDAGQPSREGSITKKKSTLLLRDEDEPTMPKLSVMETAVDTDSGSSSTSDDEEGDIIAQTTEPKQDASPDDDRSGHSSPREEGQQQIRAKEASGGPSEIKSSLMVPVEIRWQQGGSKVYVTGSFTKWRKMIGLIPDSDNNGSFHVKLRLLPGTHRFRFIVDNELRVSDFLPTATDQMGNFVNYIEVRQPEKNPTNEKIRSKEADSMRPPTSDRSSIALQIGKDPDDFGDGYTRFHEDLSPRPPLEYTTDIPAVFTDPSVMERYYYTLDRQQSNTDTSWLTPPQLPPQLENVILNKYYATQDQFNENNSGALPIPNHVVLNHLVTSSIKHNTLCVASIVRYKQKYVTQILYTPIESS
B5: SUA7 (protein, UniProt P29055 1-345)
chain: MMTRESIDKRAGRRGPNLNIVLTCPECKVYPPKIVERFSEGDVVCALCGLVLSDKLVDTRSEWRTFSNDDHNGDDPSRVGEASNPLLDGNNLSTRIGKGETTDMRFTKELNKAQGKNVMDKKDNEVQAAFAKITMLCDAAELPKIVKDCAKEAYKLCHDEKTLKGKSMESIMAASILIGCRRAEVARTFKEIQSLIHVKTKEFGKTLNIMKNILRGKSEDGFLKIDTDNMSGAQNLTYIPRFCSHLGLPMQVTTSAEYTAKKCKEIKEIAGKSPITIAVVSIYLNILLFQIPITAAKVGQTLQVTEGTIKSGYKILYEHRDKLVDPQLIANGVVSLDNLPGVEKK
B6: SNF4 (protein, UniProt P12904 1-322)
chain: MKPTQDSQEKVSIEQQLAVESIRKFLNSKTSYDVLPVSYRLIVLDTSLLVKKSLNVLLQNSIVSAPLWDSKTSRFAGLLTTTDFINVIQYYFSNPDKFELVDKLQLDGLKDIERALGVDQLDTASIHPSRPLFEACLKMLESRSGRIPLIDQDEETHREIVVSVLTQYRILKFVALNCRETHFLKIPIGDLNIITQDNMKSCQMTTPVIDVIQMLTQGRVSSVPIIDENGYLINVYEAYDVLGLIKGGIYNDLSLSVGEALMRRSDDFEGVYTCTKNDKLSTIMDNIRKARVHRFFVVDDVGRLVGVLTLSDILKYILLGSN
B7: SCS2 (protein, UniProt P40075 1-244)
chain: MSAVEISPDVLVYKSPLTEQSTEYASISNNSDQTIAFKVKTTAPKFYCVRPNAAVVAPGETIQVQVIFLGLTEEPAADFKCRDKFLVITLPSPYDLNGKAVADVWSDLEAEFKQQAISKKIKVKYLISPDVHPAQNQNIQENKETVEPVVQDSEPKEVPAVVNEKEVPAEPETQPPVQVKKEEVPPVVQKTVPHENEKQTSNSTPAPQNQIKEAATVPAENESSSMGIFILVALLILVLGWFYR
B8: SOK1 (protein, UniProt P40317 1-901)
chain: MDQPRTHSGPTTASNPAPSSTNSSSAPSATNSKQERSSSSLSKPSSVVPSKDSPDGDAIAKTQAAALKNDMKSGDTSTLDGSSQNIIPNRASMQKYIDQSSDLLSRSSGVITPSMSLNASTNATNNDSSGNSANSSDLKIPIDRDNTIFKTFDTKTGQFLKNDDNEEEIRRNNKVDSIPPKNIYTNINNPSPSPPPSSKQPPSASAPQLPPATEPHKEQAAQQQPPGNASNFLRIFSNKKMRSHSVPTILHSSLRKLSSHNQYYRNQNILLNHPTPSGISKKKFSRNHHQPYLHSNNPLSSNPLSLKRAIFLNQQISGNASTNANNDNINNSTATSMTNQSFLSSSNFDLTLEDRINYIKATPTPVPFPPINLQGLKEIDLQEILKNPQLRHDIIFDPLLQFRPNLDGERGNKKRQLANIYWNDVQNEIYVYSKRPEIFQYNRSRLVPLFDTLRDVLLTIVPQKESPMINNVLDTELNIQELLKGSLIMSNLSGWLADLFKHHCAPMRDPWVDKMSNKFKEAERDSSLTRLIEGLRLVFQILETMKLDIANHQIRILRPALLSNAVEFEKQYFNTLIASKRVNLNTSLLWFDKKFNENVTAGLVRNPSSITIPDVYNICIRSIINLLSCRKMVREYPTPLSFDHARLILLRADIRQIVCILVCRLLFQQLVANDPSMDKATKEYVIHTYSTKRLKNEIISIITDEHGNCRWTKNTMSIAVHLCKVIDDLHREYDNNGSCEQARRPQLPSLDNSKITFAKSWLSKQTQPLSEVYGVLENRVFKSLEDAIFNRSECTIDGRVKQDFVYLYNTNNGNVGSTNTLSTTTDTASVKISPSLMSPSKTSTTTPTGNAIASRGLFAATELEEFENVYRHLYALINLHWSVFGPHYIEMLGDKVNKKGI
B9: YBL086C (protein, UniProt P38177 1-466)
chain: MPFNHNSKAKRPKFLLDLQIKELVNIPQSSGYCYTKWRLKDGTGTSGHKVALDGEHQTTSTQSRGTTKHVHVQHHRAQWNYSLDKPILVKLHLDKNGRFLKKILVLDVFFEFADANSSLTSSSSPNGKVKKTTYANATALTATGNNSYSQKITGKLLLGTVDIDITEYVKEDETPTTNRFLLKHSKVNSIINVSLQLKLVRGSYEDFNISKSFTNGQLANYRPGINTILDNTSELSSPTSTTNQMSPKNTFSNFNGIGTTVAKPGTNATGNSTSIKSPTSTNHKSSEMTTKPGLSTTISSSMSPLIESLYQKTFKLPWDPRPGEFTPRECVEDILQGGNGWAKNEKGINLIDLQALRLNEMEEEYYNPNYGNNLGNKASSWPPNPSDDGYSTMGKREYLEKKQNWSHMSRAQRAKLRTHNDEDNENTANDKGSDKDNNSVEDNNPTDFLTDRIRENKNWSIITPSG
B10: SDS22 (protein, UniProt P36047 1-338)
chain: MDKNSVNKDSEEKDERHKIEVVDDTNPDFITADSELTQDLPDDVEVIDLVHLKIKSLEDLNLYRFKNLKQLCLRQNLIESISEVEVLPHDKIVDLDFYDNKIKHISSNVNKLTKLTSLDLSFNKIKHIKNLENLTDLENLYFVQNSISKIENLSTLKSLKNLELGGNKVHSIEPDSFEGLSNLEEIWLGKNSIPRLINLHPLKNLKILSIQSNKLKKIENLEELTNLEELYLSHNFITKIEGLEKNLKLTTLDVTSNKITSLENLNHLSNLTDIWASFNKIDQSFESLGENLSALSRLETIYLEGNPIQLENKTSYRRKLTMNLPPSLQKIDATYIRG
B11: SHE1 (protein, UniProt P38200 1-338)
chain: MNDKLQEEHNEKDTTSQINGFTPPHMSIDFHSNNNSNIIETIGVSKRLGNSVLSELDSRASSKFEFLKDQSEQQYNGDKNNEPKSGSYNINEFFQAKHDSQFGQMESLDTHYTLLHTPKRKSQHAIPQDRSDSMKRSRPSRSIPYTTPVVNDITRRIRRLKLRNSLVNGNDIVARARSMQANSNINSIKNTPLSKPKPFMHKPNFLMPTTNSLNKINSAHRNTSSSSTASSIPRSKVHRSISIRDLHAKTKPVERTPVAQGTNSQLKNSVSVFDRLYKQTTFSRSTSMNNLSSGTSAKSKEHTNVKTRLVKSKTSGSLSSNLKQSTATGTKSDRPIWR

The binders below were run against T1, His6-Gis1 (yeast (S. cerevisiae)) (UniProt Q03833) (assay: affinity purification with mass spectrometry; His6-Gis1 pre-bound to a Ni Sepharose 6 Fast Flow column; crude yeast extract (Δgis1 cells grown in air or under hypoxia, Δgis1Δhem1 cells at intermediate or high ALA) loaded, 4 °C, 2 h; eluted complexes separated by SDS-PAGE, bands excised, MS; only the target purified).
T1 sequence: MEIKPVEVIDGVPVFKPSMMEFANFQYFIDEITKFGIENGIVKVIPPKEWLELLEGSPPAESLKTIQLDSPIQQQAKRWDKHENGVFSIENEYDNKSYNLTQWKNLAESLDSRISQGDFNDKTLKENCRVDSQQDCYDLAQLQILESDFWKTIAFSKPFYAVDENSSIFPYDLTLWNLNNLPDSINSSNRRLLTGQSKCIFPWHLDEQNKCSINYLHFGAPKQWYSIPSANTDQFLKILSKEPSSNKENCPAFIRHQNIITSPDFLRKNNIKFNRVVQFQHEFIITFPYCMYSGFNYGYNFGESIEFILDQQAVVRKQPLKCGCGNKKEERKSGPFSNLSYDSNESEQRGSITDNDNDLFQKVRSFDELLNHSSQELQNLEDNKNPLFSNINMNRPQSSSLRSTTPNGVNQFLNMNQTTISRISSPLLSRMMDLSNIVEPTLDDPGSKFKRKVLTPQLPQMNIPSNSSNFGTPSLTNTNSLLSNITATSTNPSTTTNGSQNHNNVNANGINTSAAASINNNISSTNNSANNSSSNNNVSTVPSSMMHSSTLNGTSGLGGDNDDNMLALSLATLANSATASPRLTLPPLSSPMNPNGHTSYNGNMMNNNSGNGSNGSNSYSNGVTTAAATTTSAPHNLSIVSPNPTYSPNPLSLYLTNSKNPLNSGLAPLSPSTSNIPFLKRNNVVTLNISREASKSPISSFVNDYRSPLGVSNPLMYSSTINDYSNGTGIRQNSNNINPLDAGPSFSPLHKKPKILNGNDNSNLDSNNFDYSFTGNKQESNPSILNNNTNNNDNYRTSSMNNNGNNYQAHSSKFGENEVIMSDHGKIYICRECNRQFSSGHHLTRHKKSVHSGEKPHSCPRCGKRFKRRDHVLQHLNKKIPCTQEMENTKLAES

binding, binds:
B1, B2, B3, B4, B5, B6, B7, B8, B9, B10, B11

Reference: PMC7140707
